Not every detail of the peptide structures is certain; ends, links or a residue may be inferred. Ends that are not written are not given here.
Experiments:
Type in all cases: physicochemical
[1] = Evaluation for aggregability by stirring in PBS (absorbance at 350 nm, monomer by RP-HPLC); details: 1 mg/mL in PBS
Procedure: Each of the GLP-1 analogue and WT-GLP-1 in Example 1 was dissolved in PBS at a concentration of 1 mg/mL, and the amount of monomer was determined by RP-HPLC. 450 μL of each of the same solutions was placed into a glass vial along with a stirring bar, and the solution was stirred with a stirrer at room temperature for 20 hours. After stirring, the absorbance of the solution at 350 nm was determined (DU640, manufactured by Beckman). As for the supernatant after centrifugation, the monomer quantification by RP-HPLC and CD measurement (J-725, manufactured by Jasco Co.) were carried out.
System: NanoSpace SI-2 (manufactured by Shiseido Co., Ltd.)
Column: Capcell PAK C18, 1 mm×75 mm (manufactured by Shiseido Co., Ltd.)
Eluent A: water/acetonitrile/TFA=949/50/1
Eluent B: water/acetonitrile/TFA=50/949/1
Elution method: Gradient from 80/20 to 20/80 (Eluent A/Eluent B)
The aggregability of Peptide 3 was evaluated in the same manner as the method shown in Example 2.

[2] = Precipitation of peptide as zinc salt, peptide in supernatant by RP-HPLC; details: Z/P=1, peptide 1 mg/mL, 100 mM HEPES pH 7.4, 25° C., 18 hours
[3] = Preparation of aggregate by shaking, peptide in supernatant by RP-HPLC; details: 1 mg/mL in 20 mM phosphate buffer pH 7.4, shaken at room temperature 24 hours
[4] = In vitro release test of GLP-1 from Zinc/GLP-1 complex; details: PBS pH 7.4, 37° C., on day 23
Procedure: The quantification of GLP-1 analogue was carried out using RP-HPLC.
400 μg of each of WT-GLP-1 and GLP-1 analogue (Peptide 1) was dissolved in a 1 mM HCl solution (200 μL, pH: 2.8) containing 2 mg/mL zinc chloride. 100 μL of each of the resulting solutions was added to E-tube and diluted with a 1 mM HCl solution, whereby a 1 mg/mL solution was prepared. Then, 20 μL of PB (pH: 8.9, 100 mM) was added thereto, whereby a complex of Zinc/GLP-1 was formed. After the resulting mixture was centrifuged at 15,000 rpm for 5 minutes, the supernatant was removed, whereby a Zinc/GLP-1 complex was obtained.
PBS (0.5 mL, pH: 7.4) was added to E-tube containing the Zinc/GLP-1 complex at 37° C. The E-tube was centrifuged at different time points, and the supernatant was sampled, and 0.5 mL of PBS was freshly added thereto. 20 μL of 0.2 M HCl was added to 200 μL of the sample, and quantification was carried out by RP-HPLC.

In the case of “HGEGTFTSDVSSYLEGQAAKEFIRWLVKGRG [Peptide 1, [Gly^8]-[Arg^30]-GLP-1(7-37)]”, the “aggregability compared with WT-GLP-1” value ([1]; stirred 20 hours) is reported as “significantly increased compared with that of WT-GLP-1”, the “UV 350 nm Absorbance” value ([1]; stirred at room temperature for 20 hours) is reported as 1.42 and the “RP-HPLC Amount of residual monomer (%)” value ([1]; stirred at room temperature for 20 hours, supernatant after centrifugation) is reported as 10%. For the same sequence, the “peptide precipitated as a zinc salt” value [2] was 98.4%, the “concentration of peptide in the supernatant after shaking” value [3] was 6000 ng/mL and the peptide aggregated [3] was 99.4%. The release amount [4] was “about 55%”.
